Earlier results as cited in US8329741B2, “Substituted pyrrolidine compounds with central nervous system activity” (The Research Foundation of State University of New York, priority 2007, dated 2012).
At least one compound was matched to its structure with a doubt left.

Tested on: ckr mouse
Details: cited from earlier work

Cc1cc2c(s1)Nc1ccccc1N=C2N1CCN(C)CC1 [olanzapine]
characteristic circling behavior of the mice: reduce
